Results: patent US20180066045A1
These are yes or no findings as the source states them, for the method shown. Some binding calls cover weakened binding; strength is not graded here.

Biological target: T1, Insulin-like growth factor-binding protein 7 (human IGFBP7) (human) (UniProt Q16270)
T1 sequence: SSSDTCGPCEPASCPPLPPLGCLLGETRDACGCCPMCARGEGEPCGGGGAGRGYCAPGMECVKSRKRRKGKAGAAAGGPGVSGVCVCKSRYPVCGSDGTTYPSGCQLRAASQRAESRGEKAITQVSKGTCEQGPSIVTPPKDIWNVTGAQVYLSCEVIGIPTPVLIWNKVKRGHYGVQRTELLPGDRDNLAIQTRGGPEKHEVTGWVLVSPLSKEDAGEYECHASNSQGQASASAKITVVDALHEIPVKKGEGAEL
Experiment: epitope mapping

B1: 1D6 (antibody, mouse IgG1, V domains shown)
VH: QIQLVQSGPELKKPGETVKISCKASGYTFKKYGMNWVKQAPGKGLKWMGWINTYTGEPIYADDFKGRFAFSLETSASTAYLQISNLKNEDTATYFCAREEYGPFYAMDYWGQGTSVTVSS
VL: QIVLTQSPAIMSASPGEKVTMTCSASSSVSYMHWYQQKSGTSPKRWIYDTSELASGVPARFSGSGSGTSYSLTISSMEAEDAATYYCQQWSSSPFTFGSGTKLEIKR
For B1, the binding was “binds”.
